These are yes or no findings as the source states them, for the method shown. In cells and extracts the contact can be indirect. A yes stands for co-enrichment or nearness to the bait. Other partners may have been found. Where a sequence is shown, tags or fusion partners need not be part of it.
T1: Flag/SBP-CITED2 (CBP/p300-interacting transactivator with E/D-rich carboxy-terminal domain-2) (UniProt Q99967)
T1 sequence: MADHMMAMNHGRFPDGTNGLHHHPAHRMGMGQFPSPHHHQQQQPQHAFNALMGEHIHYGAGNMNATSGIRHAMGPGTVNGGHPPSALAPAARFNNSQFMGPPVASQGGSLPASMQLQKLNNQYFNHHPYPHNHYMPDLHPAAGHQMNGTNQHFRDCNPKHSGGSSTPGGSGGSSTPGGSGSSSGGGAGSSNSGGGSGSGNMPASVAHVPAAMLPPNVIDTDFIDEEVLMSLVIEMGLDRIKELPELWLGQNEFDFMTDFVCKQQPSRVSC

Sequences of proteins named here, by UniProt entry; tags and fusion partners are left off. A change or cut given only in a name is not applied to a line headed by its entry.
UniProt Q9BQA1: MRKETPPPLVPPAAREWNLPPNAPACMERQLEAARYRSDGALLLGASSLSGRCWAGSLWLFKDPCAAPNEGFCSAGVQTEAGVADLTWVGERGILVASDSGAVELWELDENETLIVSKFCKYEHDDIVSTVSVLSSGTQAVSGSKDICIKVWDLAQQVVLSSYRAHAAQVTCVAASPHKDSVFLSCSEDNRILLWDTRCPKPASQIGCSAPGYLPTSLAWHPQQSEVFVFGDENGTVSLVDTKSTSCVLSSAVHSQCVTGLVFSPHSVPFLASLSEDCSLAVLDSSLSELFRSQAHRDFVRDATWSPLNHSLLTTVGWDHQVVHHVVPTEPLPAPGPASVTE
UniProt O14744: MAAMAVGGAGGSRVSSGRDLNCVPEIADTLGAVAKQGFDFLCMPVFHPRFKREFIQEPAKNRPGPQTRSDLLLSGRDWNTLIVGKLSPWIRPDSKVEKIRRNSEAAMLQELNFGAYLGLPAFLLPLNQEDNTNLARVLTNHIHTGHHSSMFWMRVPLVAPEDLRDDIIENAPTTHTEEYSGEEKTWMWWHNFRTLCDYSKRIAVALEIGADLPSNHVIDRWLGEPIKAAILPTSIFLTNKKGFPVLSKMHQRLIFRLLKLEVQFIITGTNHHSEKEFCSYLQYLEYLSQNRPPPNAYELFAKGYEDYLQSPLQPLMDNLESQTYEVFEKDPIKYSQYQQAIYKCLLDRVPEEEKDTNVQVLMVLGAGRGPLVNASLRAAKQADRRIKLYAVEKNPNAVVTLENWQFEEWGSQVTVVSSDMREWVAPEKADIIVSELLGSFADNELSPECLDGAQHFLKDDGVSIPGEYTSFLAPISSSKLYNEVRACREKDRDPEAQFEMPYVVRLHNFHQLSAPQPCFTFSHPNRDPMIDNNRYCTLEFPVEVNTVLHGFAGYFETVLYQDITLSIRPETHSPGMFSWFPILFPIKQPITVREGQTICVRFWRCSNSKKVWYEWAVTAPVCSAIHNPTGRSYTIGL


Target: T1, Flag/SBP-CITED2 (CBP/p300-interacting transactivator with E/D-rich carboxy-terminal domain-2)
Test: affinity purification with mass spectrometry; Flag/SBP-CITED2 overexpressed in HEK293T cells, pulled down with anti-FLAG or streptavidin affinity beads; co-purified proteins analysed by LC-MS/MS; proteins found in both precipitates

Row | Molecule | binding
1 | WDR77, endogenous (from UniProt Q9BQA1 1-342) | binds
2 | PRMT5, endogenous (from UniProt O14744) | binds
3 | RIOK1, endogenous (protein, UniProt Q9BRS2 1-568) MDYRRLLMSRVVPGQFDDADSSDSENRDLKTVKEKDDILFEDLQDNVNENGEGEIEDEEEEGYDDDDDDWDWDEGVGKLAKGYVWNGGSNPQANRQTSDSSSAKMSTPADKVLRKFENKINLDKLNVTDSVINKVTEKSRQKEADMYRIKDKADRATVEQVLDPRTRMILFKMLTRGIITEINGCISTGKEANVYHASTANGESRAIKIYKTSILVFKDRDKYVSGEFRFRHGYCKGNPRKMVKTWAEKEMRNLIRLNTAEIPCPEPIMLRSHVLVMSFIGKDDMPAPLLKNVQLSESKARELYLQVIQYMRRMYQDARLVHADLSEFNMLYHGGGVYIIDVSQSVEHDHPHALEFLRKDCANVNDFFMRHSVAVMTVRELFEFVTDPSITHENMDAYLSKAMEIASQRTKEERSSQDHVDEEVFKRAYIPRTLNEVKNYERDMDIIMKLKEEDMAMNAQQDNILYQTVTGLKKDLSGVQKVPALLENQVEERTCSDSEDIGSSECSDTDSEEQGDHARPKKHTTDPDIDKKERKKMVKEAQREKRKNKIPKHVKKRKEKTAKTKKGK | binds
